This test addresses T1, Flag-tagged TRAF2 (UniProt Q12933).
T1 sequence: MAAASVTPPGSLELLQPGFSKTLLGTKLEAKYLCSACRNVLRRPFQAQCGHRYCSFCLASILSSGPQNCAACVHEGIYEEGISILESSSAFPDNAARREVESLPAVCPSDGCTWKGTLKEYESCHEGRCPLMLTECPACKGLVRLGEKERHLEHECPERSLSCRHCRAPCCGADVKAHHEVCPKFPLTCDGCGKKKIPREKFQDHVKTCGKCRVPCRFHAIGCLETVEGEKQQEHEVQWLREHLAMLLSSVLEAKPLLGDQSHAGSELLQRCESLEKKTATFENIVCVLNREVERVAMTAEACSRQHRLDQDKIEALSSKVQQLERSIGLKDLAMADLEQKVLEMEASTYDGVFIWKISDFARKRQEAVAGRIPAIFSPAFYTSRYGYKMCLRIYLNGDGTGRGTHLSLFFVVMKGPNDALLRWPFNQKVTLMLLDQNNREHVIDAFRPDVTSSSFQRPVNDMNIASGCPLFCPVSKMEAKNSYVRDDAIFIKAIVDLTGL
The test can be described thus: co-IP.

Chains of the proteins cited; added tags and fusions are not shown.
UniProt P22061: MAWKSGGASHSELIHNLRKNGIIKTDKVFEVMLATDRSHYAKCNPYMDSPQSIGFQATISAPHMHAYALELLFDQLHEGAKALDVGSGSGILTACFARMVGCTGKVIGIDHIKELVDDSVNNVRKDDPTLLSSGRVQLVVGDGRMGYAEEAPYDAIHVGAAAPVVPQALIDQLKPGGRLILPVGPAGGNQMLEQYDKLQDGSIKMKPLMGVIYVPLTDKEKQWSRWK

Results are given in words; binding and its absence hold for the method and conditions named. In cells and extracts the contact can be indirect. Some entries that bind do so weakly or less than the wild type. Sequences can lack the tags named with a protein.

Experimental findings from publication doi:10.1101/2022.01.25.477656 are described below.

For “Myc-tagged PIMT (protein L-isoaspartyl O-methyltransferase), wild type (from UniProt P22061 1-227) (enzyme)”, the binding result is “binds weakly”.
